From the supplement of paper PMC6411743
± gives the standard deviation of the averaged measurements. This is a selection; strong and weak results do not stand in their true shares.

Chains of the proteins cited; added tags and fusions are not shown. Lines headed by an entry give the natural chain unless they say otherwise; changes in a name come on top.
UniProt Q9HB20: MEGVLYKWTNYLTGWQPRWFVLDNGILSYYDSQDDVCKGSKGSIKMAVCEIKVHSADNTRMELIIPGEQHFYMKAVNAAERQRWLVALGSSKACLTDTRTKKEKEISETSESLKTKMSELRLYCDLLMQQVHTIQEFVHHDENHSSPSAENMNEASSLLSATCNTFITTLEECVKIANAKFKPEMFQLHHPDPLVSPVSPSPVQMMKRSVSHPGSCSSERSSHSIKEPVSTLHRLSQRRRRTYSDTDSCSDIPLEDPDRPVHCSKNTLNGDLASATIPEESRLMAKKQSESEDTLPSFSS
UniProt Q9H6Q4: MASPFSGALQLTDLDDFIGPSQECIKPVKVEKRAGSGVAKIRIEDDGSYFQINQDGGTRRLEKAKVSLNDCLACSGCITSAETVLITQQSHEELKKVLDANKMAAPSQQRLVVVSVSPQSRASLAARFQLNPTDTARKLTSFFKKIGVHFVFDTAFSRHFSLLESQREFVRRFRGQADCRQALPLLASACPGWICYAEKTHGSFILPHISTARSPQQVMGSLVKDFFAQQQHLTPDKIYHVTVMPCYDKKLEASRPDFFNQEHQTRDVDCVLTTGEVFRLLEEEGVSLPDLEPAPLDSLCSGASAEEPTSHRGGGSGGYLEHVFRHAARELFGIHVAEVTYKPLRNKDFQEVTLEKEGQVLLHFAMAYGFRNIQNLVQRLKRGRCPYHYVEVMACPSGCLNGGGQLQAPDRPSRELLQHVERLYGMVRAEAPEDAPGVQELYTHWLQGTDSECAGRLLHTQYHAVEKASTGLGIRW
UniProt Q9HAV7: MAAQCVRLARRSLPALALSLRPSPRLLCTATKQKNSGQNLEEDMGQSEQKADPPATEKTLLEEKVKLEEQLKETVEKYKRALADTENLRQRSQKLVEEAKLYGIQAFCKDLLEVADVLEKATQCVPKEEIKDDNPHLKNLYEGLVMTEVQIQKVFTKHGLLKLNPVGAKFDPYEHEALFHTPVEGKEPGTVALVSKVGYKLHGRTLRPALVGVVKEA
UniProt Q9H3R0: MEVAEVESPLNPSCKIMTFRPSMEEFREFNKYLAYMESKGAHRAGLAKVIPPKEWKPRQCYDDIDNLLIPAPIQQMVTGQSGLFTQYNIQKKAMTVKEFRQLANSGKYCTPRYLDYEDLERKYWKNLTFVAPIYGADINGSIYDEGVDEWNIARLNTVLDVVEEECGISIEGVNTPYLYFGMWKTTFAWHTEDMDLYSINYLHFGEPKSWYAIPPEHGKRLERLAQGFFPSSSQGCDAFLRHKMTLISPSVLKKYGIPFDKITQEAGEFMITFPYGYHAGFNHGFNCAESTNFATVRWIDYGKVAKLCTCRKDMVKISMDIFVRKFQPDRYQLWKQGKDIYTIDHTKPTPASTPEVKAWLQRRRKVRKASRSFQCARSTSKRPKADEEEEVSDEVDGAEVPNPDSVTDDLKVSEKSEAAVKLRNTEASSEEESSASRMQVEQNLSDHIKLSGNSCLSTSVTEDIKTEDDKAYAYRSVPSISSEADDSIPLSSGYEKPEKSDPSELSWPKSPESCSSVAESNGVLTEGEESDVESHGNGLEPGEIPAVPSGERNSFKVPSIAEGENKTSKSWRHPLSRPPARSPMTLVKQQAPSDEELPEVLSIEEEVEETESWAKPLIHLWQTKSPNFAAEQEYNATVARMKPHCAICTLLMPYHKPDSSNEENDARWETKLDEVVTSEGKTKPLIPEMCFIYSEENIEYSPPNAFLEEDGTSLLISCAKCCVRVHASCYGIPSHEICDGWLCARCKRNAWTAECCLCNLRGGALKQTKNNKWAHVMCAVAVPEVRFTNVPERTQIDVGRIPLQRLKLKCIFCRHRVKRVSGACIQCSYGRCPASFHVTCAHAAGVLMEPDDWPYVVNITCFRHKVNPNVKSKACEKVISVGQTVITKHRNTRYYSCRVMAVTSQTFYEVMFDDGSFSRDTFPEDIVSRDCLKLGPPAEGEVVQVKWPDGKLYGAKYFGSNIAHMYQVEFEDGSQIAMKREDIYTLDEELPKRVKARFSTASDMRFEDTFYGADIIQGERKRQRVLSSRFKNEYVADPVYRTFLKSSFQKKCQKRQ
UniProt Q9H1B7, whole entry: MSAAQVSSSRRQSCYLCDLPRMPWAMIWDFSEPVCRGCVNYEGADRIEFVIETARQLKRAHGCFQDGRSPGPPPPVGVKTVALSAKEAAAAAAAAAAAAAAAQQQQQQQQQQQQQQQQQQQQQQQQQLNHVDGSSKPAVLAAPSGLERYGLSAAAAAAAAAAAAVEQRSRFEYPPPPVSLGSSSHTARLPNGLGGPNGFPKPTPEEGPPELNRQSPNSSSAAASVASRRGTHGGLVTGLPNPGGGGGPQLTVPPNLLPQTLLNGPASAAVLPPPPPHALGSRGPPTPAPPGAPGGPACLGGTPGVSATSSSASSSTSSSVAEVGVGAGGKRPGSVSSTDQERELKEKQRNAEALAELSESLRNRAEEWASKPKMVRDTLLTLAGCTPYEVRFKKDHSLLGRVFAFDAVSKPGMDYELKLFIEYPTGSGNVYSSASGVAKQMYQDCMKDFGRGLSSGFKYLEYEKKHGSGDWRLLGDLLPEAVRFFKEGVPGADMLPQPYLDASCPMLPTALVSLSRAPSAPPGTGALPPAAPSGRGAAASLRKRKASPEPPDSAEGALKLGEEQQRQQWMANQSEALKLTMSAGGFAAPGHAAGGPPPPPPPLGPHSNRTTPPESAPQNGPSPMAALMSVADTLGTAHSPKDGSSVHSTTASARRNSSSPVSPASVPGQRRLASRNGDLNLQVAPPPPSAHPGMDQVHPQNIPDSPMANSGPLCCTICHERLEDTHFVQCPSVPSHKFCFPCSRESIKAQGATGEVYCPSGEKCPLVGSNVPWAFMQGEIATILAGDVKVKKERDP
UniProt Q9H0U4: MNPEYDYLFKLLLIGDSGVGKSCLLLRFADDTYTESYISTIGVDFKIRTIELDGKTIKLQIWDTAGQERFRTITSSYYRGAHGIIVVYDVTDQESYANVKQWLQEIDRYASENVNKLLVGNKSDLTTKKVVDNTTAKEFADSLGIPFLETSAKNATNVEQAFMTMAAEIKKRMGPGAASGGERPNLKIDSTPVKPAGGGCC
UniProt Q9H3H1: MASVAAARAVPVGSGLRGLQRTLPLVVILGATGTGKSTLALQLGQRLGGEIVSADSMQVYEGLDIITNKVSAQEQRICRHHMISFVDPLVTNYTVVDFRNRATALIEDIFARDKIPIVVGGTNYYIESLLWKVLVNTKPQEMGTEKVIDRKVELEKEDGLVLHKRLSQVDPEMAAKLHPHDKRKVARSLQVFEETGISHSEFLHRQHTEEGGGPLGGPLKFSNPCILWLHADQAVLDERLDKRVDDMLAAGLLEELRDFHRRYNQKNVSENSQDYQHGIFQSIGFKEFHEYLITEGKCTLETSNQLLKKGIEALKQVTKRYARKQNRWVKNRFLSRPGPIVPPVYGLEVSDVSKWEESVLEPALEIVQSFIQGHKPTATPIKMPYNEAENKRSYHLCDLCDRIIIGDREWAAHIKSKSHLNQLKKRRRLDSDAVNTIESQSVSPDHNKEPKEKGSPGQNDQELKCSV
UniProt Q9H444: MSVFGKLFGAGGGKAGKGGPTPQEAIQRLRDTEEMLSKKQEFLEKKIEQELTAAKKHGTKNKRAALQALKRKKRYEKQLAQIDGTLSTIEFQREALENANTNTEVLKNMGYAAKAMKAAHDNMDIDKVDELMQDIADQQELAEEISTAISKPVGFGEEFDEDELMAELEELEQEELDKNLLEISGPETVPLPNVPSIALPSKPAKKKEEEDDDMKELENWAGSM
UniProt Q9HC52: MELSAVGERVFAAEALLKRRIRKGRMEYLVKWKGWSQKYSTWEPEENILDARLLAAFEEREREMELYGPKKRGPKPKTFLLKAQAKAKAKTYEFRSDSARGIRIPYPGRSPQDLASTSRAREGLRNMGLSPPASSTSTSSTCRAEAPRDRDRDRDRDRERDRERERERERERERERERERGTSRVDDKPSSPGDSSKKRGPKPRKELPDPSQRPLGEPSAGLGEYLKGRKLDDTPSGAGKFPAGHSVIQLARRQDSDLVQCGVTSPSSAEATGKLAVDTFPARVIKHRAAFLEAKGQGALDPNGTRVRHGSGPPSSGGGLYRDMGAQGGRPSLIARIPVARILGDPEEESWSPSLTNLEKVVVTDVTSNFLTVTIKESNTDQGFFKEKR
UniProt Q9H446: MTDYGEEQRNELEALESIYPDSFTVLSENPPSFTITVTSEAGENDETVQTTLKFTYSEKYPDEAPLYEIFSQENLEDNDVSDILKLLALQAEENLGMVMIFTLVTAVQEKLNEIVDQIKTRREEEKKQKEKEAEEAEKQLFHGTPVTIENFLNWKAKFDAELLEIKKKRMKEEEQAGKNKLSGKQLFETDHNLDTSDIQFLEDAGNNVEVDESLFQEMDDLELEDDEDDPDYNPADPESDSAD
UniProt Q9C073: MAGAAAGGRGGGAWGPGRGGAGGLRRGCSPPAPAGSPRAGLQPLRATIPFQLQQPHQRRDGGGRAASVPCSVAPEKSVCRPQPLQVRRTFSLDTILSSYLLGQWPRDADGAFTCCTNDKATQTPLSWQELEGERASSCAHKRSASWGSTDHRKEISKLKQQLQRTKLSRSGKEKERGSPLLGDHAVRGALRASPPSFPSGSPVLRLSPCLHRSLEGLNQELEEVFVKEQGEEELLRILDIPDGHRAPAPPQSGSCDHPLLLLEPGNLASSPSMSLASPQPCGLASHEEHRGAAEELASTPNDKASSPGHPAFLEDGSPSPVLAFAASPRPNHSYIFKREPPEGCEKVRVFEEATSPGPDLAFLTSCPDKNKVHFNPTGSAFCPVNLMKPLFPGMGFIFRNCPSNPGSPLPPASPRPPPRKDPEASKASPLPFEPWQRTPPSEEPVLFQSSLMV
UniProt Q9BZL1: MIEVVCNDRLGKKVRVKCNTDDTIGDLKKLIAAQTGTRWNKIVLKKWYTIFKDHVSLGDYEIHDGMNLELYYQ
UniProt Q9H871: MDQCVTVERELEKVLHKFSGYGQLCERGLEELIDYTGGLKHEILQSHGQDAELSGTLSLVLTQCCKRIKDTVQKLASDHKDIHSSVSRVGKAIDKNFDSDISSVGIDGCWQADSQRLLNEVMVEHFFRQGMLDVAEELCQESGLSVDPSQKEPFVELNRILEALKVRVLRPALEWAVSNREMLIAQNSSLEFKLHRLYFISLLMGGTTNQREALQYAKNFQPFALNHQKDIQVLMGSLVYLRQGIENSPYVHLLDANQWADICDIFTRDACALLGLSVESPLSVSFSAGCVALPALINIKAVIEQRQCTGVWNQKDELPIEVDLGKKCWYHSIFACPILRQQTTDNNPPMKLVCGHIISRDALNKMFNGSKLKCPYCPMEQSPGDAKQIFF
UniProt Q9BZX2: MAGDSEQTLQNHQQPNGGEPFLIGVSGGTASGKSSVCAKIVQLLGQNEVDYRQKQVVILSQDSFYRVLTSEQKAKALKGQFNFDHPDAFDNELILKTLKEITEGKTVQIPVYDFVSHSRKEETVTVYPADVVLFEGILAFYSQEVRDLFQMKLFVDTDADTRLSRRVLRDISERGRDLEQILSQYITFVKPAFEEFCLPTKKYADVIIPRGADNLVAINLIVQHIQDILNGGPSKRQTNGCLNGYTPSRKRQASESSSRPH
UniProt Q9C035: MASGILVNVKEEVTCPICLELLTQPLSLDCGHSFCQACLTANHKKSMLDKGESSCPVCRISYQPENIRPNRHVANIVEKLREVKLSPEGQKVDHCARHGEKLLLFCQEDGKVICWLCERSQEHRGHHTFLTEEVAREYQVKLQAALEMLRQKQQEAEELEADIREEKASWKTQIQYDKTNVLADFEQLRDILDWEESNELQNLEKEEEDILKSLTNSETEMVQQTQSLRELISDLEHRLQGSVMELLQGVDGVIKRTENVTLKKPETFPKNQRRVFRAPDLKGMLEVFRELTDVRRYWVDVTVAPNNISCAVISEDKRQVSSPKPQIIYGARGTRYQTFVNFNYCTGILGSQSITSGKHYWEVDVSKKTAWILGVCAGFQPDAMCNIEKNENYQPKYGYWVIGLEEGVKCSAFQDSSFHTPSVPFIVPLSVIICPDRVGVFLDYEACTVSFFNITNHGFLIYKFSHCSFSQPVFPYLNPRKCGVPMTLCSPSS
UniProt Q9H9E1: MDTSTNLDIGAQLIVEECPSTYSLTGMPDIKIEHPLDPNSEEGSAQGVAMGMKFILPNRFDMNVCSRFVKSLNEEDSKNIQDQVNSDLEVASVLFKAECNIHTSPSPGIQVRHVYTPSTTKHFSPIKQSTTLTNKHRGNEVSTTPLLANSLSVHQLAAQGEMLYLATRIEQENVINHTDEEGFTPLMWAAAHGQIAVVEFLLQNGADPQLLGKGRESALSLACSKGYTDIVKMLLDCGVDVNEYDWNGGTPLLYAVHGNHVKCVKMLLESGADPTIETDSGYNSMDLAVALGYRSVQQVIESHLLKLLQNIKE
UniProt Q9HD15: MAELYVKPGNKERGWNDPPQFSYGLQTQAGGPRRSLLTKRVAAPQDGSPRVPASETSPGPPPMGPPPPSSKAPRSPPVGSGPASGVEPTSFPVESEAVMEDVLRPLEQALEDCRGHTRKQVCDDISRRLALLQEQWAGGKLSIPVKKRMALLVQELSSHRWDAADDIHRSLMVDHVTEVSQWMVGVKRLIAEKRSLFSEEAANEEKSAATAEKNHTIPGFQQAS

Compound: Nc1ncnc2c1ncn2[C@@H]1O[C@H](COP(=O)(O)OP(=O)(O)NP(=O)(O)O)[C@@H](O)[C@H]1O [adenylyl imidodiphosphate]
Assay: NP40-soluble protein abundance relative to vehicle (solubility fold change) (ratio); higher = more soluble protein in presence of AMP-PNP
In short: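 Each value is a fold change relative to the detergent-processed vehicle, calculated per replicate from vsn-normalised intensities. Jurkat crude lysate received eight concentrations (0.1 to 10 mM) for 10 min at room temperature and 3 min at 37 °C, then was solubilised in 0.8% NP40 with benzonase (60 min, 4 °C). The ultracentrifuged supernatant was TMT-labelled and run by LC-MS/MS in three independent experiments.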

Target | NP40-soluble protein abundance (concentration: 1mM) | NP40-soluble protein abundance (concentration: 2mM) | NP40-soluble protein abundance (concentration: 4mM) | NP40-soluble protein abundance (concentration: 6mM) | NP40-soluble protein abundance (concentration: 8mM) | NP40-soluble protein abundance (concentration: 10mM)
RANGRF (UniProt Q9HD47) | 1 ± 0.035 | 0.995 ± 0.044 | 1.02 ± 0.054 | 0.978 ± 0.031 | 1.01 ± 0.034 | 1 ± 0.021
PLEKHA3 (UniProt Q9HB20) | 0.978 ± 0.02 | 0.968 ± 0.029 | 0.9578 ± 0.0019 | 0.967 ± 0.011 | 0.962 ± 0.029 | 0.956 ± 0.038
UniProt Q9NP92 and related entries | 1.03 ± 0.074 | 1 ± 0.12 | 0.998 ± 0.13 | 0.943 ± 0.17 | 0.955 ± 0.14 | 0.968 ± 0.18
KLC2 (UniProt Q9H0B6) | 1.01 ± 0.038 | 1.03 ± 0.063 | 1.02 ± 0.033 | 1.02 ± 0.019 | 0.9984 ± 0.0094 | 1.02 ± 0.019
GPN2 (UniProt Q9H9Y4) | 0.983 ± 0.013 | 0.963 ± 0.017 | 1.01 ± 0.037 | 0.9646 ± 0.0056 | 0.968 ± 0.028 | 0.935 ± 0.039
LHPP (UniProt Q9H008) | 0.998 ± 0.048 | 0.973 ± 0.018 | 1.05 ± 0.014 | 1.06 ± 0.072 | 1.1 ± 0.031 | 1.07 ± 0.039
UniProt Q9H6Q4 | 0.993 ± 0.0077 | 0.994 ± 0.044 | 1.03 ± 0.022 | 0.977 ± 0.025 | 0.994 ± 0.029 | 0.992 ± 0.039
UniProt Q9H330-2 | 0.983 ± 0.042 | 1 ± 0.019 | 0.969 ± 0.04 | 0.977 ± 0.057 | 0.932 ± 0.038 | 0.965 ± 0.019
GRPEL1 (UniProt Q9HAV7) | 0.932 ± 0.033 | 0.978 ± 0.059 | 0.9 ± 0.046 | 0.88936 ± 0.00021 | 0.87 ± 0.018 | 0.879 ± 0.037
YTHDC2 (UniProt Q9H6S0) | 1.07 ± 0.039 | 1.08 ± 0.049 | 1.15 ± 0.022 | 1.18 ± 0.024 | 1.2 ± 0.033 | 1.193 ± 0.0055
KDM4C (UniProt Q9H3R0) | 0.989 ± 0.015 | 0.992 ± 0.029 | 0.9676 ± 0.0034 | 0.99 ± 0.025 | 0.992 ± 0.022 | 0.99 ± 0.017
UniProt Q9H1B7 | 1.02 ± 0.012 | 1.05 ± 0.071 | 1.03 ± 0.016 | 1.015 ± 0.0057 | 1 ± 0.013 | 1.01 ± 0.031
PLEKHA1 (UniProt Q9HB21) | 1.01 ± 0.029 | 1.02 ± 0.078 | 1.03 ± 0.043 | 1.05 ± 0.032 | 1.03 ± 0.043 | 1.096 ± 0.0045
RAB1B (UniProt Q9H0U4) | 0.976 ± 0.01 | 0.981 ± 0.016 | 0.927 ± 0.04 | 0.972 ± 0.021 | 0.9252 ± 0.0074 | 0.937 ± 0.052
REXO4 (UniProt Q9GZR2) | 1.06 ± 0.047 | 1.09 ± 0.073 | 1.1 ± 0.038 | 1.17 ± 0.036 | 1.18 ± 0.039 | 1.21 ± 0.051
UniProt Q9H3H1 and related entries | 1.14 ± 0.14 | 1.12 ± 0.16 | 1.04 ± 0.085 | 1.06 ± 0.27 | 0.975 ± 0.099 | 1.01 ± 0.088
UniProt Q9H903 and related entries | 1.05 ± 0.024 | 1.04 ± 0.079 | 1.06 ± 0.075 | 1.11 ± 0.14 | 1.1 ± 0.11 | 1.06 ± 0.016
LSG1 (UniProt Q9H089) | 0.993 ± 0.019 | 0.975 ± 0.033 | 0.987 ± 0.017 | 0.926 ± 0.03 | 0.927 ± 0.034 | 0.924 ± 0.013
UniProt Q9HBE1 and related entries | 1.03 ± 0.052 | 1.05 ± 0.025 | 1.0468 ± 0.001 | 1.04 ± 0.029 | 1.03 ± 0.061 | 1.05 ± 0.032
UniProt Q9H773 and related entries | 1.03 ± 0.02 | 1.01 ± 0.019 | 1.041 ± 0.0073 | 1.03 ± 0.015 | 1.01 ± 0.019 | 1 ± 0.022

Part of the list above, as labelled records.
UniProt Q9NP92 and related entries
  NP40-soluble protein abundance (concentration: 1mM): 1.03 ± 0.074
  NP40-soluble protein abundance (concentration: 2mM): 1 ± 0.12
  NP40-soluble protein abundance (concentration: 4mM): 0.998 ± 0.13
  NP40-soluble protein abundance (concentration: 6mM): 0.943 ± 0.17
  NP40-soluble protein abundance (concentration: 8mM): 0.955 ± 0.14
  NP40-soluble protein abundance (concentration: 10mM): 0.968 ± 0.18
UniProt Q9H3H1 and related entries
  NP40-soluble protein abundance (concentration: 1mM): 1.14 ± 0.14
  NP40-soluble protein abundance (concentration: 2mM): 1.12 ± 0.16
  NP40-soluble protein abundance (concentration: 4mM): 1.04 ± 0.085
  NP40-soluble protein abundance (concentration: 6mM): 1.06 ± 0.27
  NP40-soluble protein abundance (concentration: 8mM): 0.975 ± 0.099
  NP40-soluble protein abundance (concentration: 10mM): 1.01 ± 0.088

Next records follow:

Target | NP40-soluble protein abundance (concentration: 1mM) | NP40-soluble protein abundance (concentration: 2mM) | NP40-soluble protein abundance (concentration: 4mM) | NP40-soluble protein abundance (concentration: 6mM) | NP40-soluble protein abundance (concentration: 8mM) | NP40-soluble protein abundance (concentration: 10mM)
CHMP4B (UniProt Q9H444) | 0.967 ± 0.063 | 1.03 ± 0.12 | 0.949 ± 0.051 | 0.971 ± 0.075 | 0.946 ± 0.081 | 0.99 ± 0.097
CBX8 (UniProt Q9HC52) | 1.08 ± 0.015 | 1.1 ± 0.04 | 1.13 ± 0.018 | 1.23 ± 0.028 | 1.33 ± 0.062 | 1.39 ± 0.044
SUDS3 (UniProt Q9H7L9) | 0.979 ± 0.022 | 1.04 ± 0.041 | 0.949 ± 0.03 | 0.984 ± 0.02 | 0.982 ± 0.028 | 1.01 ± 0.021
ZWILCH (UniProt Q9H900) | 0.981 ± 0.017 | 0.933 ± 0.08 | 1.01 ± 0.048 | 0.946 ± 0.025 | 0.964 ± 0.041 | 0.968 ± 0.075
UniProt Q9H446 and related entries | 1.01 ± 0.024 | 1.02 ± 0.041 | 1.01 ± 0.03 | 1.01 ± 0.028 | 0.971 ± 0.026 | 1.01 ± 0.017
CDT1 (UniProt Q9H211) | 1.02 ± 0.027 | 1.09 ± 0.12 | 1.04 ± 0.032 | 1.03 ± 0.041 | 1.03 ± 0.053 | 1.01 ± 0.018
MTIF3 (UniProt Q9H2K0) | 0.963 ± 0.026 | 1.05 ± 0.029 | 0.9992 ± 0.007 | 1.002 ± 0.006 | 1.04 ± 0.032 | 1.02 ± 0.013
FAM117A (UniProt Q9C073) | 1.01 ± 0.009 | 1.02 ± 0.046 | 1.01 ± 0.022 | 0.983 ± 0.021 | 0.996 ± 0.03 | 0.962 ± 0.03
POFUT1 (UniProt Q9H488) | 0.997 ± 0.04 | 0.975 ± 0.043 | 1.04 ± 0.086 | 1.05 ± 0.064 | 1.03 ± 0.062 | 1.05 ± 0.034
UniProt Q9BZL1 | 1.03 ± 0.041 | 1.04 ± 0.03 | 1.05 ± 0.07 | 1.01 ± 0.033 | 1.09 ± 0.044 | 1.02 ± 0.066
MRPL46 (UniProt Q9H2W6) | 0.981 ± 0.061 | 1.02 ± 0.036 | 1.007 ± 0.0099 | 0.938 ± 0.034 | 0.968 ± 0.065 | 0.928 ± 0.066
PTPN23 (UniProt Q9H3S7) | 1.002 ± 0.0026 | 1.02 ± 0.031 | 1.016 ± 0.0094 | 1.01 ± 0.035 | 1 ± 0.023 | 1.02 ± 0.012
UniProt Q9H871 | 0.961 ± 0.028 | 0.951 ± 0.058 | 0.961 ± 0.055 | 0.951 ± 0.068 | 0.945 ± 0.056 | 0.929 ± 0.079
UCK2 (UniProt Q9BZX2) | 1.04 ± 0.018 | 0.9952 ± 0.0077 | 1.03 ± 0.04 | 0.991 ± 0.027 | 1.01 ± 0.058 | 0.951 ± 0.029
UniProt Q9C035 and related entries | 1.01 ± 0.051 | 1.06 ± 0.086 | 1.03 ± 0.055 | 1.04 ± 0.037 | 1.05 ± 0.027 | 1.05 ± 0.045
ANKRA2 (UniProt Q9H9E1) | 0.912 ± 0.057 | 0.91 ± 0.023 | 0.911 ± 0.025 | 0.97 ± 0.087 | 0.99 ± 0.058 | 0.963 ± 0.05
SRA1 (UniProt Q9HD15) | 0.967 ± 0.025 | 0.967 ± 0.023 | 0.955 ± 0.042 | 0.942 ± 0.013 | 0.938 ± 0.016 | 0.935 ± 0.027
DMAP1 (UniProt Q9NPF5) | 1 ± 0.027 | 1.07 ± 0.028 | 1.02 ± 0.075 | 1.09 ± 0.09 | 1.05 ± 0.085 | 1.11 ± 0.092
UniProt Q9H477 and related entries | 0.995 ± 0.035 | 0.9831 ± 0.0088 | 1 ± 0.029 | 0.998 ± 0.022 | 0.9762 ± 0.0079 | 0.9765 ± 0.0058
UniProt Q9HD33 and related entries | 1.02 ± 0.097 | 1.05 ± 0.078 | 0.987 ± 0.083 | 1.02 ± 0.11 | 1.01 ± 0.13 | 1.04 ± 0.18
